Laboratory results taken from publication PMC10470785.
No constants are given. Whether binding was seen depends on the method and setting. Binding seen in cells or lysates may run through a third protein. For part of these data: Binding calls can cover weak binding; strength is not graded here.

The chains behind the UniProt entries cited, without tags or fusion partners.
UniProt P62820: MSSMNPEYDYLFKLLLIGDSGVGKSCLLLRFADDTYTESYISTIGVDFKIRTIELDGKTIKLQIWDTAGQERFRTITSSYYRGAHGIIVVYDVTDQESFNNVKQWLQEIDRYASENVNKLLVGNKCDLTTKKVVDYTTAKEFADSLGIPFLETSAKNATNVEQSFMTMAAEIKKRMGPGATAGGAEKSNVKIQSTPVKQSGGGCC
UniProt P20338: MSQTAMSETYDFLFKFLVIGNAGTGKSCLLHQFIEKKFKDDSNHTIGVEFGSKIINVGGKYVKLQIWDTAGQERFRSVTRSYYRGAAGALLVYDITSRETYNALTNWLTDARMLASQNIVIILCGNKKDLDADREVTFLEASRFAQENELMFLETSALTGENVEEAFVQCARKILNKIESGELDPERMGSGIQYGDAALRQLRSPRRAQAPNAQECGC
UniProt Q15286: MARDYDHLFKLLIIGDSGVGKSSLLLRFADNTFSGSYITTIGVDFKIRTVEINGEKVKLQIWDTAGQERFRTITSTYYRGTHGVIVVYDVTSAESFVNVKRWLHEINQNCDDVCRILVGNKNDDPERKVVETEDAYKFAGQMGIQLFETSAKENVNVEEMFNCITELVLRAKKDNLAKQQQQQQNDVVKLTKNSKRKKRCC

What was measured:
Assay in all cases: co-IP; HeLa cells infected with strains expressing CpoS-FLAG (ortholog or variant) and transfected with EGFP-Rab plasmids; CpoS-FLAG precipitated from lysates at 26 hpi with ANTI-FLAG M2 magnetic beads; western blot
[1] = molecular target: CpoS(L2-CC1*)-FLAG (C. trachomatis serovar L2)
[2] = molecular target: CpoS(D)-FLAG (C. trachomatis serovar D) (UniProt O84232)
[3] = molecular target: CpoS(L2-CC2*)-FLAG (C. trachomatis serovar L2)
[4] = molecular target: CpoS(L2Δ60)-FLAG (C. trachomatis serovar L2)

In the case of EGFP-Rab1A (from UniProt P62820 1-205), the binding [1] is reported as “no binding”, the binding [2] is reported as “binds” and the binding [3] is reported as “binds”. The binding [4] was “no binding”.

EGFP-Rab4A (from UniProt P20338 1-218) was tested, and the binding [1] was “no binding”, the binding [2] was “binds” and the binding [3] was “binds”. The binding [4] was “no binding”.

EGFP-Rab35 (from UniProt Q15286 1-201) was tested, and the binding [1] was “no binding”, the binding [2] was “binds” and the binding [3] was “binds”. For the same substance, the binding [4] was “binds”.
